Values from PubChem BioAssay AID743121 (NCATS, 2013).

- Assay: 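Genes whose silencing strengthens cell killing by camptothecin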 (primary screen)
- Cell system: MDA-MB-231 cells, a human breast cancer line
- Knock-down reagent: single siRNA against human genes, 20 nM siRNA (0.8 pmol per well)
- Duration: 120 h (drug added 48 h after transfection, read 72 h later)
- Conditions: camptothecin 20 nM (about EC30) for 72 h; vehicle 0.1% DMSO in parallel plates
- Measurement: 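CellTiter-Glo ATP signal, scaled to control siRNA as percent viability; sensitisation given as log2 of untreated divided by camptothecin-treated viability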
- Reading the numbers: log2 vehicle/camptothecin viability: higher = stronger sensitisation to camptothecin; viability with camptothecin and viability without drug: higher = more viable cells
- Call rule: 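Active genes have an RSA gene-level p-value below 0.001, computed from the ratios of their separate siRNAs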
Shown is a random part of about 26,000 reagents tested. In the full data, 167 (0.63%) got an active call. 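Calls are per gene from RSA p-values that are not deposited; an individual active-marked siRNA can sensitise only weakly.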 A number with no mark means an inactive call. Reagents against one gene are numbered here.

| gene | reagent | log2 vehicle/camptothecin viability | viability with camptothecin (% of control) | viability without drug (% of control) |
| --- | --- | --- | --- | --- |
| SRPK3 (GeneID 26576) | 1 | 0.128 | 83 | 90.7 |
| SRPK3 (GeneID 26576) | 2 | -0.661 | 74.2 | 46.9 |
| SRPK3 (GeneID 26576) | 3 | 0.191 | 50.3 | 57.4 |
| SRPK3 (GeneID 26576) | 4 | -0.388 | 92.1 | 70.4 |
| ST14 (GeneID 6768) | 1 | 0.0839 | 58.5 | 62 |
| ST14 (GeneID 6768) | 2 | 1.2 | 38.6 | 88.6 |
| ST14 (GeneID 6768) | 3 | -0.52 | 60.1 | 41.9 |
| OR10H3 (GeneID 26532) | 1 | 0.225 | 89.5 | 105 |
| OR10H3 (GeneID 26532) | 2 | -0.293 | 79.5 | 64.9 |
| OR10H3 (GeneID 26532) | 3 | 0.0323 | 108 | 111 |
| OR10H3 (GeneID 26532) | 4 | -0.341 | 103 | 81.1 |
| CYP4F8 (GeneID 11283) | 1 | -0.441 | 82.3 | 60.6 |
| CYP4F8 (GeneID 11283) | 2 | 0.107 | 56.5 | 60.9 |
| CYP4F8 (GeneID 11283) | 3 | -0.225 | 71.3 | 61 |
| CYP4F8 (GeneID 11283) | 4 | -0.22 | 120 | 103 |
| MARCHF3 (GeneID 115123) | 1 | -0.454 | 62.9 | 45.9 |
| MARCHF3 (GeneID 115123) | 2 | -0.227 | 89.2 | 76.2 |
| MARCHF3 (GeneID 115123) | 3 | 0.174 | 76.9 | 86.7 |
| MARCHF3 (GeneID 115123) | 4 | 0.0215 | 61.2 | 62.1 |
| ALAS2 (GeneID 212) | 1 | 0.00442 | 96.5 | 96.8 |
| ALAS2 (GeneID 212) | 2 | 0.0746 | 72.3 | 76.1 |
| ALAS2 (GeneID 212) | 3 | 0.129 | 85 | 92.9 |
| MS4A7 (GeneID 58475) | 1 | -0.193 | 58.9 | 51.5 |
| MS4A7 (GeneID 58475) | 2 | 0.0742 | 87.5 | 92.2 |
| MS4A7 (GeneID 58475) | 3 | -0.148 | 98.1 | 88.5 |
| MS4A7 (GeneID 58475) | 4 | -0.511 | 115 | 80.4 |
| RELN (GeneID 5649) | 1 | 0.173 | 84.7 | 95.4 |
| RELN (GeneID 5649) | 2 | -0.278 | 68.6 | 56.6 |
| RELN (GeneID 5649) | 3 | -0.318 | 112 | 89.8 |
| RELN (GeneID 5649) | 4 | 0.623 | 47.2 | 72.7 |
| GDF2 (GeneID 2658) | 1 | -0.233 | 98.1 | 83.5 |
| GDF2 (GeneID 2658) | 2 | -0.386 | 62.2 | 47.6 |
| GDF2 (GeneID 2658) | 3 | -0.0523 | 99.1 | 95.6 |
| GDF2 (GeneID 2658) | 4 | -0.315 | 124 | 99.8 |
| AXL (GeneID 558) | 1 | -0.0872 | 111 | 104 |
| AXL (GeneID 558) | 2 | -0.195 | 106 | 92.8 |
| AXL (GeneID 558) | 3 | -0.0891 | 78 | 73.3 |
| AXL (GeneID 558) | 4 | -0.231 | 84.1 | 71.7 |
| SLC20A1 (GeneID 6574) | 1 | -0.283 | 78.9 | 64.9 |
| SLC20A1 (GeneID 6574) | 2 | -0.463 | 83.3 | 60.4 |
| SLC20A1 (GeneID 6574) | 3 | 0.0127 | 88.3 | 89.1 |
| SLC20A1 (GeneID 6574) | 4 | -0.387 | 95.3 | 72.8 |
| TNK1 (GeneID 8711) | 1 | -0.639 | 62 | 39.8 |
| TNK1 (GeneID 8711) | 2 | -0.394 | 83.3 | 63.4 |
| TNK1 (GeneID 8711) | 3 | -0.372 | 25.3 | 19.5 |
| TNK1 (GeneID 8711) | 4 | -0.0562 | 95.5 | 91.8 |
| CD86 (GeneID 942) | 1 | 0.12 | 81.3 | 88.3 |
| CD86 (GeneID 942) | 2 | -0.378 | 126 | 97.2 |
| CD86 (GeneID 942) | 3 | -0.344 | 95.4 | 75.1 |
| CD86 (GeneID 942) | 4 | -0.228 | 86.3 | 73.7 |
| FBXO31 (GeneID 79791) | 1 | 0.273 | 92.6 | 112 |
| FBXO31 (GeneID 79791) | 2 | -0.381 | 122 | 93.9 |
| FBXO31 (GeneID 79791) | 3 | -0.111 | 102 | 94.8 |
| FBXO31 (GeneID 79791) | 4 | 0.456 | 42.7 | 58.6 |
| SCNN1A (GeneID 6337) | 1 | 0.511 | 21.5 | 30.7 |
| SCNN1A (GeneID 6337) | 2 | -0.282 | 32.5 | 26.7 |
| SCNN1A (GeneID 6337) | 3 | -0.0713 | 91.1 | 86.7 |
| HSD17B1 (GeneID 3292) | 1 | 0.00951 | 94.2 | 94.8 |
| HSD17B1 (GeneID 3292) | 2 | 0.176 | 70.2 | 79.3 |
| HSD17B1 (GeneID 3292) | 3 | -0.1 | 118 | 110 |
| HSD17B1 (GeneID 3292) | 4 | -0.367 | 15.1 | 11.7 |
| ADCY8 (GeneID 114) | 1 | 0.102 | 75.9 | 81.5 |
| ADCY8 (GeneID 114) | 2 | 0.733 | 46.5 | 77.3 |
| SLC25A23 (GeneID 79085) | 1 | 0.0489 | 86 | 88.9 |
| SLC25A23 (GeneID 79085) | 2 | 0.0883 | 83.1 | 88.3 |
| SLC25A23 (GeneID 79085) | 3 | -0.301 | 45.5 | 36.9 |
| SLC25A23 (GeneID 79085) | 4 | -0.313 | 18.7 | 15.1 |
| TMEM171 (GeneID 134285) | 1 | -0.455 | 77.1 | 56.3 |
| TMEM171 (GeneID 134285) | 2 | -0.303 | 53.2 | 43.1 |
| TMEM171 (GeneID 134285) | 3 | 0.768 | 16.5 | 28.2 |
| TMEM171 (GeneID 134285) | 4 | 0.0546 | 82.7 | 85.9 |
